Test results: publication PMC5177622, “Multivalent Histone and DNA Engagement by a PHD/BRD/PWWP Triple Reader Cassette Recruits ZMYND8 to K14ac-Rich Chromatin” (Cell Reports, 2016)
For at least one entry, the source does not settle the construct or the ends of the probe. For part of these data: No signal at the amounts used counts as a negative.

Chains of the proteins cited; added tags and fusions are not shown. A line that says so, or that is headed by a name, gives the form on record, which may keep a tag or linker. Residues count along the entry.
UniProt Q9ULU4, 83-406 R96A/K233A/K239A/K243A: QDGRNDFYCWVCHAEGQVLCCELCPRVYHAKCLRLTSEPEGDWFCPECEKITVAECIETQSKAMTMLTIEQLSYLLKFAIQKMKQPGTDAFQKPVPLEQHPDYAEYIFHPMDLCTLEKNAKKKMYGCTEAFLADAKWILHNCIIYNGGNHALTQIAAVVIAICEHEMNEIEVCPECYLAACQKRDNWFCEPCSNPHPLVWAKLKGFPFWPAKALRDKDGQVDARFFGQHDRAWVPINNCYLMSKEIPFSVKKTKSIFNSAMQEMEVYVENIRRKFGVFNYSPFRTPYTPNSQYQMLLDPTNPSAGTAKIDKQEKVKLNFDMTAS
UniProt Q9ULU4, 83-406 K284A/K286A/K334A: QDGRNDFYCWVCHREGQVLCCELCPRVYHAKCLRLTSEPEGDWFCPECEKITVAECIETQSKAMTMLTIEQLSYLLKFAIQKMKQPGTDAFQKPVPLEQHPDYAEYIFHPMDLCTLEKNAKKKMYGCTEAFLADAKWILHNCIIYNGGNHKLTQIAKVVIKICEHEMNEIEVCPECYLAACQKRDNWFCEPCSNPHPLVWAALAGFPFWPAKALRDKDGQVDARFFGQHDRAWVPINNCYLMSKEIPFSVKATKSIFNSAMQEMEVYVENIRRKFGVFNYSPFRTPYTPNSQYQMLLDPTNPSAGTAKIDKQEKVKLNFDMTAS
ZMYND8 PHD/BRD/PWWP cassette WT (human), one chain, as listed by the source: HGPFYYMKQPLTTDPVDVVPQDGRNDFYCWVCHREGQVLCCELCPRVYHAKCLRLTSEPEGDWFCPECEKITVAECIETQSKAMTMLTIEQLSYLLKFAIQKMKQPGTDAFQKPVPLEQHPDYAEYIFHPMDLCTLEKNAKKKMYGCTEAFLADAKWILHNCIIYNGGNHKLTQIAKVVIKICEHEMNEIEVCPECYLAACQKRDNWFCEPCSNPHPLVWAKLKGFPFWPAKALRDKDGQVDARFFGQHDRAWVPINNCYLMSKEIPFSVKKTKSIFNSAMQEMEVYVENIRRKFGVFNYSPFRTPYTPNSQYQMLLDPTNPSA

Legend:
Assay in all cases: EMSA
[1] = tested on: ZMYND8 PHD/BRD/PWWP cassette WT (human); settings: EMSA binding buffer; probes annealed in 1x React buffer 3 (Invitrogen); recombinant protein; residues 83-406; label: radioactive
[2] = target: ZMYND8 cassette PHD/BRD DNA-face mutant (RKKK/AAAA) R96A,K233A,K239A,K243A (human) (UniProt Q9ULU4); settings: EMSA binding buffer; probes annealed in 1x React buffer 3 (Invitrogen); recombinant protein; label: radioactive
[3] = target: ZMYND8 cassette PWWP DNA-face mutant (KKK/AAA) K284A,K286A,K334A (human) (UniProt Q9ULU4); settings: EMSA binding buffer; probes annealed in 1x React buffer 3 (Invitrogen); recombinant protein; label: radioactive

Row | Sequence | binding result [1] | binding result [2] | binding result [3]
1 | CATGGCGGGGCCCCGCGACGCGGCTGCCTGCGGGGTGCATG (double strand) [GC-rich probe] | binds | no binding | no binding
2 | CATGTTTTAATAGTATCTGCAATTTGTAATATGTCTACATG (double strand) [AT-rich probe] | binds | no binding | no binding
